In PubChem BioAssay AID1671190 (National Center for Advancing Translational Sciences (NCATS), 2021):
Several values for one entry are separate records, joined by “and”; a condition that tells them apart may be missing. Equal entries are not always repeated. Screen size: about 580,000 compounds; about 6,100 (1.1%) were called active. The inconclusive results got no clear call from the source; some entries with a clear call stand among them for comparison. The call rests on the fitted dose curve; in most records, active means well fitted inhibition curve with a large enough effect; inconclusive means small, poorly fitted or top-dose-only effect, or another doubt; inactive means no such curve, though single readings can be large or run the other way. Potencies beside an inconclusive call are fits to weak or partial responses and may not hold up.
Potency means the concentration at half of the fitted maximal effect.

Chains of the proteins cited; added tags and fusions are not shown. Lines headed by an entry give the natural chain unless they say otherwise; changes in a name come on top.
UniProt P18054: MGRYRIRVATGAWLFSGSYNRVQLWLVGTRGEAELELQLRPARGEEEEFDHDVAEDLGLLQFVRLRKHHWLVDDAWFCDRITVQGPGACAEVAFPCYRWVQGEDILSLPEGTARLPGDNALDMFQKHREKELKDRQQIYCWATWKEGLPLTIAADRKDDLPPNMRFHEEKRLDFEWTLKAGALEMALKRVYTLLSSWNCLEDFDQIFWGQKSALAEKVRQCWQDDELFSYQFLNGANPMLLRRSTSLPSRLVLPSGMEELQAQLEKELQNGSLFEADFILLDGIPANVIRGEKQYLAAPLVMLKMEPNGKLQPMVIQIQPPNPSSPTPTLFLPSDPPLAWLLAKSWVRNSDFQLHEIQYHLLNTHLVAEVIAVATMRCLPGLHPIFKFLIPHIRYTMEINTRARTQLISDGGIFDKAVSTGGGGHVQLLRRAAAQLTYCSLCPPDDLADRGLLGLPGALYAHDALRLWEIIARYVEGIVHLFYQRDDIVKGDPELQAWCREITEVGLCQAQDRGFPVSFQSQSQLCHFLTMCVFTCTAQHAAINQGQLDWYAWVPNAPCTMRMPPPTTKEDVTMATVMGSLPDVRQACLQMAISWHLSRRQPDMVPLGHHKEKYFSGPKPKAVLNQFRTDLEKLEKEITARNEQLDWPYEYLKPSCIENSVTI

What follows are molecules tested against Polyunsaturated fatty acid lipoxygenase ALOX12 (Homo sapiens) (UniProt P18054) (assay: Primary qHTS assay for inhibitors of human arachidonate 12S-lipoxygenase (ALOX12): Round 2). Conditions: purified 12hLO, xylenol orange hydroperoxide absorbance; series mostly up to 108 µM.
How it was run: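 Hydroperoxide product was detected by ferrous iron/xylenol orange as the 573 to 405 nm absorbance ratio. Arachidonic acid at 40 uM (final) was turned over for 30 min at room temperature by 150 nM human 12hLO, pH 7.0 Hepes buffer, after 15 min compound preincubation.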
In the case of `CCN1C(=O)[C@H]2[C@H]3CN=C(SC)N3[C@@](C)(C(=O)OC)[C@H]2C1=O`, the Potency is reported as inconclusive: 44.7 µM [inhibitor, partial curve, poor fit]. `CC1=CC(C)C(COC(=O)C[N+]2(C)CCOCC2)C(C)C1` (centres undefined) was tested, and the Potency was active: 20 µM. `Cc1ccc(NC(=S)Nc2ccc(-c3nnc4n3CCCCC4)cc2)cc1C` was tested, and the Potency was inconclusive: 89.1 µM [inhibitor, partial curve, poor fit]. `NC(=O)c1cc2ccccc2oc1=NCc1ccccc1` was tested, and the Potency was inconclusive: 31.6 µM [inhibitor, single point]. In the case of `O=C(O)CNC(=O)/C=C/c1cccc(C(F)(F)F)c1`, the Potency is reported as inconclusive: 141 µM [inhibitor, single point]. In the case of `CC(=O)Nc1ccc(C(=O)N2CCCCC2c2cc(C(=O)NCc3ccccc3)no2)cc1` (centres undefined), the Potency is reported as “inactive”. With `c1ccc(-c2nnc(-c3ccco3)n2-c2ccccc2)cc1` the Potency was “inactive”. In the case of `CC(O)(P(=O)(O)O)P(=O)(O)O`, the Potency is reported as inconclusive: 31.6 µM [inhibitor, partial curve, poor fit] and inconclusive: 56.2 µM [inhibitor, partial curve, poor fit]. In the case of `Fc1ccc(OC2CN(Cc3ccccc3)C2)cc1F`, the Potency is reported as “inactive”. With `CC(CN1CCN(C)CC1)OC(=O)COc1ccc(F)cc1` (centres undefined) the Potency was inconclusive: 0.562 µM [inhibitor, full curve, poor fit]. For `Cc1cc(NC(=S)NC(=O)c2ccccc2)ccc1-c1cc2ccccc2oc1=O`, the Potency was inconclusive: 44.7 µM [inhibitor, partial curve, poor fit]. In the case of `CS(=O)(=O)c1ccc(NCc2ccccc2F)c(S(C)(=O)=O)c1`, the Potency is reported as inconclusive: 15.8 µM [inhibitor, single point]. For `CC[C@]1(c2ccccc2)C(=O)N(C(=O)OC)N1C(=O)OC`, the Potency was “inactive”. In the case of `NC(=O)C1CCN(C(=O)c2ccc3c(=O)n(Cc4cccc(Br)c4)c(=S)[nH]c3c2)CC1`, the Potency is reported as active: 44.7 µM. For `O=c1c2ccccc2ncn1Cc1ncc(-c2ccc(Cl)cc2)o1`, the Potency was inconclusive: 20 µM [inhibitor, partial curve, poor fit]. With `CCOc1ccc(NC(=S)NCC(c2cccnc2)N2CCOCC2)cc1` (centres undefined) the Potency was “inactive”. `C=CCn1c(N)c(C(=O)N2CCOCC2)sc1=S` was tested, and the Potency was inconclusive: 89.1 µM [inhibitor, partial curve, poor fit]. `CN(C)CCCN(C(=O)c1ccc([N+](=O)[O-])o1)c1nc2cc3c(cc2s1)OCO3` was tested, and the Potency was “inactive”. `COc1ccc(-c2nc(CN3CCN(c4cc(C)nc(C)c4)CC3)c(C)o2)c2ccccc12` was tested, and the Potency was “inactive”.
